In the supplement of paper PMC10849652:
The list shows a part of the results.

Protein sequences, listed by entry. Tags and fused reporters are not part of them. Lines headed by an entry give the natural chain unless they say otherwise; changes in a name come on top.
UniProt Q9BTE6: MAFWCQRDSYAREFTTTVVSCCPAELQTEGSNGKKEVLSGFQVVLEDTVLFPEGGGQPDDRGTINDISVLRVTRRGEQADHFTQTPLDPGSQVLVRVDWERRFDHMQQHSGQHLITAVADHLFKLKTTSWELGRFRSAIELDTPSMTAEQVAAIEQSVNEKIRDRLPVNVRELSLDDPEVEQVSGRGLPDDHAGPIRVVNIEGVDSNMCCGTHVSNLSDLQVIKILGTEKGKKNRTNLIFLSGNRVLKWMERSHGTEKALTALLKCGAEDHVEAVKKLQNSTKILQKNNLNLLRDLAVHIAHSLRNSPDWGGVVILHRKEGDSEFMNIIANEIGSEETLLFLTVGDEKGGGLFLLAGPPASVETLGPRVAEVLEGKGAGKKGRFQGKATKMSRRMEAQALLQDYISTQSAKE
UniProt P00519, whole entry, looked up: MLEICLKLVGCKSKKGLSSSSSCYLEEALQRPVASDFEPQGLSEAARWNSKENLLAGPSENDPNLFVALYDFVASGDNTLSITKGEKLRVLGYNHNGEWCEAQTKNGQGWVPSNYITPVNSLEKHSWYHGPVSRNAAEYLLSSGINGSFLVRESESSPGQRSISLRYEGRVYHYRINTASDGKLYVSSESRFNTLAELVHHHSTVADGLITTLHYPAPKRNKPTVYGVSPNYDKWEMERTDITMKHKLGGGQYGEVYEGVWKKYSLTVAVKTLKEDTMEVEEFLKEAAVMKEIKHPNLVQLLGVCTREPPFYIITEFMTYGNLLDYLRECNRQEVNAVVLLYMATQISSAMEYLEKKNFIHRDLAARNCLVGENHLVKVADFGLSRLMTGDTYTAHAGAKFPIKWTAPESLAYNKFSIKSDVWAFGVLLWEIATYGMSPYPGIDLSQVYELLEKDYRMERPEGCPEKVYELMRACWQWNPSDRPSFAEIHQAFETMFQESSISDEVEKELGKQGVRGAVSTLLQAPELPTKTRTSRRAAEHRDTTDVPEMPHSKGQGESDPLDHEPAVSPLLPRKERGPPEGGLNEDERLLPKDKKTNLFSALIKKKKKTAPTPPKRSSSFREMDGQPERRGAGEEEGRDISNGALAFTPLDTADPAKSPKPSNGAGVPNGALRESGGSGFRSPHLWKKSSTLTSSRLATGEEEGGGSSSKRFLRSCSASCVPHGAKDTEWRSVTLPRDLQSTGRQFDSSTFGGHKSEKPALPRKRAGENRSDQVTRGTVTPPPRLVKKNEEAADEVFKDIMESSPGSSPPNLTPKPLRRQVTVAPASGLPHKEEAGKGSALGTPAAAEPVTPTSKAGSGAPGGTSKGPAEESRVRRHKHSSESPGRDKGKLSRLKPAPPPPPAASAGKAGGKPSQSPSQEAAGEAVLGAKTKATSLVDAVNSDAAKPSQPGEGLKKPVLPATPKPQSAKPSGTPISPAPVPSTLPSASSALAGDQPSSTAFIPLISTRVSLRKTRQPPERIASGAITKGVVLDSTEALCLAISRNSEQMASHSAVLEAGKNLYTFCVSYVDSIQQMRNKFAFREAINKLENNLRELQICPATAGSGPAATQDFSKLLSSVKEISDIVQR
UniProt Q8N6N7: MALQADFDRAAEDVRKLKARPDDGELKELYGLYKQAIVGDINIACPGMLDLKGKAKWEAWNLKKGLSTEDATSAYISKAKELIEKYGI
UniProt Q8WU67: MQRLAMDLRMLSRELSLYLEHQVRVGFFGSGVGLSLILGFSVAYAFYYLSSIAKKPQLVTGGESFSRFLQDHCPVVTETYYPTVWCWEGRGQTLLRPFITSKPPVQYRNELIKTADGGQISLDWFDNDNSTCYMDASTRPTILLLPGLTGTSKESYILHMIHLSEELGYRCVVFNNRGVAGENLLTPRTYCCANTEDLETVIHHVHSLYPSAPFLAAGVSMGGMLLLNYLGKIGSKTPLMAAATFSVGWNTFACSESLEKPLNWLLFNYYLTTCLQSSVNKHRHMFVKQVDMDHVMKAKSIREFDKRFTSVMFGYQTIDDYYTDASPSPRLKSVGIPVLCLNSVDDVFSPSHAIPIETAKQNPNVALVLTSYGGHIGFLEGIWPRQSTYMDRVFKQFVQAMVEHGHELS
UniProt Q6JQN1: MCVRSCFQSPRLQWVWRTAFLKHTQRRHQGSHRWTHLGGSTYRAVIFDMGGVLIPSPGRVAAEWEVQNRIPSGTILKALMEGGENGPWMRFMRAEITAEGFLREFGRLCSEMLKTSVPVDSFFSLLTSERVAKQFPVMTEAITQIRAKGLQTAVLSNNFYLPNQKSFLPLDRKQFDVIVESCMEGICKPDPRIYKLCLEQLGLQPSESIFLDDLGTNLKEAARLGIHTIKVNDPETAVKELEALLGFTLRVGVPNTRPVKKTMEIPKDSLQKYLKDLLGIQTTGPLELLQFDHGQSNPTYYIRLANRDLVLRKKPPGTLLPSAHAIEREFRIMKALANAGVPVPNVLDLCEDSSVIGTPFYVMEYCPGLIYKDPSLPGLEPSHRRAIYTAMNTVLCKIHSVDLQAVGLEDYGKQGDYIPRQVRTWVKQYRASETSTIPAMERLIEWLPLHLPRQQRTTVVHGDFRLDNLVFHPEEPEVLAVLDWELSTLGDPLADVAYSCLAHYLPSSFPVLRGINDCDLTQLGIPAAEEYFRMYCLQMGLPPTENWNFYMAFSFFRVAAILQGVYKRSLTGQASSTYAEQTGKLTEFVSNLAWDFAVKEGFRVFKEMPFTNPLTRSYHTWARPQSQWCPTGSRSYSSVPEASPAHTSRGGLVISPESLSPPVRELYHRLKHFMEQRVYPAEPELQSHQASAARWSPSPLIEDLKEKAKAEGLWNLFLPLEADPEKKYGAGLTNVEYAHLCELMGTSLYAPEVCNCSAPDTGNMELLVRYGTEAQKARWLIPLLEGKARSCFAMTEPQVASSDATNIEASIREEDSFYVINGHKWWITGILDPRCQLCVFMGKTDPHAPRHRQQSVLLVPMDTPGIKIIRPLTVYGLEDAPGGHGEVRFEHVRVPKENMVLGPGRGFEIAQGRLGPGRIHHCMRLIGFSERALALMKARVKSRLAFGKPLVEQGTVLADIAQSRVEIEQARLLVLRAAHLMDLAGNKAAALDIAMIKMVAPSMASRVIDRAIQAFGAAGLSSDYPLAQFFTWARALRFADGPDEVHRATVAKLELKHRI
UniProt Q99758: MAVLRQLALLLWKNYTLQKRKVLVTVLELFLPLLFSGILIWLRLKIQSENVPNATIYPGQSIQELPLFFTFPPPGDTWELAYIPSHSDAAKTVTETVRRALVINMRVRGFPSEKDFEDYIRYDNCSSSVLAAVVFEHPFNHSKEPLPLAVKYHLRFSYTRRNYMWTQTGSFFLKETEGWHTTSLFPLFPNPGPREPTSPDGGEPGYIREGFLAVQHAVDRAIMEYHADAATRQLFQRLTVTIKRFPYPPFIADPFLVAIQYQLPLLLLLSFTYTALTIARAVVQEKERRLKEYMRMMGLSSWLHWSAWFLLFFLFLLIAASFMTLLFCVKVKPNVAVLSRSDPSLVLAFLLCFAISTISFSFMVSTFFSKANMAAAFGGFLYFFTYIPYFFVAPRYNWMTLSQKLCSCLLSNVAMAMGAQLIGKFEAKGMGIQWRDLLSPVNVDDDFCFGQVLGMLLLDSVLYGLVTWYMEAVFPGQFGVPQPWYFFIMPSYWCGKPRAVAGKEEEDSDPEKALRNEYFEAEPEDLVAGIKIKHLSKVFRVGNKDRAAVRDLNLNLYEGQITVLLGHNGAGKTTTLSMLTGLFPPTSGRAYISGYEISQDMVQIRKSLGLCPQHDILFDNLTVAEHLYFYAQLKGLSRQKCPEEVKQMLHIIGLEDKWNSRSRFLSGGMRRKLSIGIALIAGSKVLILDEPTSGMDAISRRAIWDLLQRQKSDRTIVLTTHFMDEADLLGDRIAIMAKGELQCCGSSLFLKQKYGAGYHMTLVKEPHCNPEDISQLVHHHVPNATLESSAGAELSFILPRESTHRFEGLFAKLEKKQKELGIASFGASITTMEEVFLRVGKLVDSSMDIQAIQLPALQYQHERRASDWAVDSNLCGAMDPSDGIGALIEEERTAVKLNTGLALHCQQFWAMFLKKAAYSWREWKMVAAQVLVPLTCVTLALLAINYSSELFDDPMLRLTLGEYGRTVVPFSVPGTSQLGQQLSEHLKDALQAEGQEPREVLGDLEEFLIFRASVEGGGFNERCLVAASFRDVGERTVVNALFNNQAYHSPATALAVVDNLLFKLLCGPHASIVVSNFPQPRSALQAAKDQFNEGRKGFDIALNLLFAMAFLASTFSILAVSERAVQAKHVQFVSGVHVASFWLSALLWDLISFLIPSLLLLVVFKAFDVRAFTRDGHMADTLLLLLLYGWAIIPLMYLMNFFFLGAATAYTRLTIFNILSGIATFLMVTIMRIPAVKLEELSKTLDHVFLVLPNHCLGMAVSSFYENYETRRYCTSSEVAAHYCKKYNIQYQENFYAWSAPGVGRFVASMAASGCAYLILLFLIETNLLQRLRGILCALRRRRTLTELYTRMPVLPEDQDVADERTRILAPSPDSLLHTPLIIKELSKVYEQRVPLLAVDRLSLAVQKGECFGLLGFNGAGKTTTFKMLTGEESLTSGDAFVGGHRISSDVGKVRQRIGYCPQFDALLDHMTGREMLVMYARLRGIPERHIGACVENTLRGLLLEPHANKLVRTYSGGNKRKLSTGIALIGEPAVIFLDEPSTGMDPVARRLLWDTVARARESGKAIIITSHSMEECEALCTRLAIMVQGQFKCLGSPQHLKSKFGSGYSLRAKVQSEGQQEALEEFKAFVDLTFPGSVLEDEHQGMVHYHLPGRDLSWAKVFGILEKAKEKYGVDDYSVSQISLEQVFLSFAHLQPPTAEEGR
UniProt Q9UKU7: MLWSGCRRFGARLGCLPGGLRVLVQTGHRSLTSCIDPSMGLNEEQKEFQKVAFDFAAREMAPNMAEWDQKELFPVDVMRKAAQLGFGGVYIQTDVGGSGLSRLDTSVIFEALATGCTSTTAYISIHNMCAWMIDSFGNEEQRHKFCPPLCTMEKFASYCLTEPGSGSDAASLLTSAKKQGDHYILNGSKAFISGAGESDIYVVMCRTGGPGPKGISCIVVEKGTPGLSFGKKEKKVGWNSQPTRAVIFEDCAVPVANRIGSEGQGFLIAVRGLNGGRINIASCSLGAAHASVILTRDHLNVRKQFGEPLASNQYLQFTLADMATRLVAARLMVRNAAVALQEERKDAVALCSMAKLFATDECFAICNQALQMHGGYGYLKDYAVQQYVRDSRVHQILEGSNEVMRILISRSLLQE
UniProt P53396: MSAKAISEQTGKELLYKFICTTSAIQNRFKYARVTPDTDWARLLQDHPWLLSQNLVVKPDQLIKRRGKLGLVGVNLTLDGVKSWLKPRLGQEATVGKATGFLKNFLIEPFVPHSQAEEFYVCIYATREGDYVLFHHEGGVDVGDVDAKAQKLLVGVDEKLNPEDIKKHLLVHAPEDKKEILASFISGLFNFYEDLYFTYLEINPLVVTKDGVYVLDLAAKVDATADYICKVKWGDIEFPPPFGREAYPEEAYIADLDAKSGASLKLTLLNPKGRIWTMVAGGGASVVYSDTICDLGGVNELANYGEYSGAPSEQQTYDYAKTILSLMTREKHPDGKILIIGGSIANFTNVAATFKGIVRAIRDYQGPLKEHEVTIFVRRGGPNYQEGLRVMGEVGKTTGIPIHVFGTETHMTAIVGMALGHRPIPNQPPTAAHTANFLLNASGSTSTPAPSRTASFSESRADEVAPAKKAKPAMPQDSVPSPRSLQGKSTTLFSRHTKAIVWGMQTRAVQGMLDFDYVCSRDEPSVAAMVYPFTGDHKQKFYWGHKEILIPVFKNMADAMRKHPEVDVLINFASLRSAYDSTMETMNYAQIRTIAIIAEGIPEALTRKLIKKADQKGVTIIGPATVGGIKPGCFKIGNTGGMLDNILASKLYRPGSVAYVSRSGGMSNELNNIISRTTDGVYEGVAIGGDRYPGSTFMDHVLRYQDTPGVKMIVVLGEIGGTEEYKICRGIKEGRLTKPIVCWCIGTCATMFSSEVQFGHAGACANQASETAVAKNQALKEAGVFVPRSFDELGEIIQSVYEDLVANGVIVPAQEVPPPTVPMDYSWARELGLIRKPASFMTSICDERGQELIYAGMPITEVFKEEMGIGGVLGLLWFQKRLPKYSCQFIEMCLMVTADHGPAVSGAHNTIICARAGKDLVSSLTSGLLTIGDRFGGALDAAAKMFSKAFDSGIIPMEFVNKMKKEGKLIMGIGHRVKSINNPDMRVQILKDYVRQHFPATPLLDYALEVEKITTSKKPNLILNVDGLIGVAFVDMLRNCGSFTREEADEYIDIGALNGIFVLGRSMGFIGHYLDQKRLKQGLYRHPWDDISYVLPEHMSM

Legend:
Test in all cases: log2 fold change, soluble protein after heating vs DMSO (PISA); higher = thermal stabilisation; K562 lysate, 10 uM; active = over 0.2 and 3.5 SD of the protein, either way, in both replicates (recomputed)
[1] = compound: CC[C@@H]1C(=O)N(C)c2cnc(Nc3ccc(C(=O)NC4CCN(C)CC4)cc3OC)nc2N1C1CCCC1
In short: (§1)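 Soluble protein was defined as the supernatant remaining after 21,000xg for 90 min, following pooling of heated aliquots and adjustment to 0.5% NP-40 at 4°C. Before that, crude K562 extract at 1 mg/mL protein in PBS pH 7.4 with 1 mM MgCl2 was treated with 10 μM compound for 30 min and heated for 3 min across 48°C-58°C. Quantification used TMTpro 16plex LC-MS/MS with channel sums equalised, and values are log-two fold changes in thermal stability relative to solvent controls from duplicates.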

[2] = compound: CNC(=O)C1=CC=CC=C1NC2=NC(=NC=C2Cl)NC3=C(C=C(C=C3)N4CCOCC4)OC
In short: as §1

[3] = compound: COC(=O)N[C@@H](C)CNc1nccc(-c2cn(C(C)C)nc2-c2cc(Cl)cc(NS(C)(=O)=O)c2F)n1 [encorafenib]
In short: as §1

[4] = compound: COC(=O)[C@H](CCSC)NC(=O)C1=C(C=C(C=C1)NC[C@H](CS)N)C2=CC=CC=C2
In short: as §1

[5] = compound: COc1cc(Nc2ncc3c(n2)-c2ccc(Cl)cc2C(c2c(F)cccc2OC)=NC3)ccc1C(=O)O [alisertib]
In short: as §1

[6] = compound: COc1cc2ncnc(Nc3ccc(F)c(Cl)c3)c2cc1OCCCN1CCOCC1 [gefitinib]
In short: as §1

[7] = compound: CCCS(=O)(=O)Nc1ccc(F)c(C(=O)c2c[nH]c3ncc(Cl)cc23)c1F
In short: as §1

[8] = compound: CCN(CCCOc1ccc2c(Nc3cc(CC(=O)Nc4cccc(F)c4)[nH]n3)ncnc2c1)CCOP(=O)(O)O [barasertib]
In short: as §1

[9] = compound: CC[C@@H]1C(=O)N(C)c2cnc(Nc3ccc(C(=O)N[C@H]4CC[C@H](N5CCN(CC6CC6)CC5)CC4)cc3OC)nc2N1C(C)C [volasertib]
In short: as §1

[10] = compound: CCn1cc(-c2ccnc3[nH]c(-c4cccc(CN(C)C)c4)cc23)c(-c2ccc(NC(=O)N(C)C)cc2)n1
In short: as §1

[11] = compound: CN1CCC(CNc2ccc3ncc(-c4cccc(OC(F)(F)F)c4)n3n2)CC1
In short: as §1

[12] = compound: CN1CCN(CCOc2cc(OC3CCOCC3)c3c(Nc4c(Cl)ccc5c4OCO5)ncnc3c2)CC1 [saracatinib]
In short: as §1

[13] = compound: CN1CC[C@H](c2c(O)cc(O)c3c(=O)cc(-c4ccccc4Cl)oc23)[C@H](O)C1 [alvocidib]
In short: as §1

[14] = compound: CNc1nc(-c2ccc3c(N)n[nH]c3c2)cc(N2C[C@@H](C(=O)NC3CCCCC3)CC[C@H]2C)n1
In short: as §1

[15] = compound: COc1cc2nc(-c3cc(F)ccc3O)nc(N[C@@H]3CNC[C@H]3C(C)(C)O)c2cc1OC
In short: as §1

[16] = compound: CN1CCN(c2nc(C3=C(c4c[nH]c5ccccc45)C(=O)NC3=O)c3ccccc3n2)CC1 [sotrastaurin]
In short: as §1

[17] = compound: CCCS(=O)(=O)Nc1ccc(F)c(C(=O)c2c[nH]c3ncc(-c4ccc(Cl)cc4)cc23)c1F [vemurafenib]
In short: as §1

[18] = compound: CCn1c(C(=O)N(C2CC2)C2CC2)cc2c3c(ncn3C)c(Nc3cc(C)n(C)n3)nc21
In short: as §1

[19] = compound: CN1CCc2c(c3ccccc3n2Cc2ccc(C(=O)NO)cc2)C1 [Tubastatin A]
In short: as §1

[20] = compound: CNC(=O)c1ccc(Nc2ncc(C(F)(F)F)c(NCc3nccnc3N(C)S(C)(=O)=O)n2)cc1 [defactinib]
In short: as §1

Measured: log2 fold change

ABHD18 (UniProt Q0P651)
inactive: [1] -0.018 | [2] 0.148 | [3] 0.045 | [4] 0.109 | [5] -0.155 | [6] 0.049

AARSD1 (UniProt Q9BTE6)
inactive: [7] -0.009 | [8] -0.019 | [1] -0.188 | [9] -0.046 | [10] -0.182 | [11] 0.074 | [12] -0.025 | [13] 0.043 | [14] -0.026 | [3] -0.318 | [4] 0.199 | [5] -0.11 | [15] -0.196 | [6] 0.017

ABCA8 isoform 3 (UniProt O94911)
inactive: [7] -0.063 | [9] 0.005 | [10] 0.035 | [11] -0.016 | [16] 0.268 | [13] 0.013 | [2] -0.073 | [15] -0.057

ABL1 isoform 2 (UniProt P00519)
inactive: [17] 0.05 | [7] 0.125 | [8] 0.031 | [1] -0.03 | [9] -0.012 | [18] -0.048 | [10] 0.156 | [11] -0.097 | [16] -0.012 | [19] -0.091 | [2] 0.044 | [20] -0.023 | [14] -0.011 | [3] 0.039 | [4] 0.071 | [5] 0.019 | [15] -0.011

ACAT1, A0A5F9ZHJ0
inactive: [18] -0.131 | [10] -0.006 | [11] 0.081 | [13] -0.023 | [19] 0.081 | [5] -0.035 | [6] -0.056

ACBD5 (UniProt Q5T8D3)
inactive: [7] 0.029 | [9] -0.346 | [18] -0.148 | [10] -0.302 | [11] 0.022 | [12] 0.16 | [13] 0.019 | [19] 0.064 | [2] -0.107 | [14] -0.064 | [15] -0.014

ACAP3 (UniProt Q96P50)
inactive: [7] 0.193 | [8] -0.464 | [1] -0.007 | [9] -0.079 | [18] 0.046 | [12] -0.011 | [19] -0.335 | [14] 0.115 | [3] -0.064 | [4] 0.145 | [5] 0.087 | [15] -0.012 | [6] 0.033

ACBD7 (UniProt Q8N6N7)
inactive: [7] 0.056 | [9] 0.035 | [12] 0.017 | [2] 0.102 | [14] 0.041 | [15] -0.022

5 successive records from above, for reference:
ABHD18 (UniProt Q0P651)
inactive: [1] -0.018 | [2] 0.148 | [3] 0.045 | [4] 0.109 | [5] -0.155 | [6] 0.049

AARSD1 (UniProt Q9BTE6)
inactive: [7] -0.009 | [8] -0.019 | [1] -0.188 | [9] -0.046 | [10] -0.182 | [11] 0.074 | [12] -0.025 | [13] 0.043 | [14] -0.026 | [3] -0.318 | [4] 0.199 | [5] -0.11 | [15] -0.196 | [6] 0.017

ABCA8 isoform 3 (UniProt O94911)
inactive: [7] -0.063 | [9] 0.005 | [10] 0.035 | [11] -0.016 | [16] 0.268 | [13] 0.013 | [2] -0.073 | [15] -0.057

ABL1 isoform 2 (UniProt P00519)
inactive: [17] 0.05 | [7] 0.125 | [8] 0.031 | [1] -0.03 | [9] -0.012 | [18] -0.048 | [10] 0.156 | [11] -0.097 | [16] -0.012 | [19] -0.091 | [2] 0.044 | [20] -0.023 | [14] -0.011 | [3] 0.039 | [4] 0.071 | [5] 0.019 | [15] -0.011

ACAT1, A0A5F9ZHJ0
inactive: [18] -0.131 | [10] -0.006 | [11] 0.081 | [13] -0.023 | [19] 0.081 | [5] -0.035 | [6] -0.056

Next part

ABHD3 (UniProt Q8WU67)
inactive: [18] -0.13 | [19] 0.064

ACAP1 (UniProt Q15027)
inactive: [10] -0.14 | [11] -0.034 | [16] 0.134 | [13] 0.093

A0A494C071, A0A494C071
inactive: [8] 0.186 | [10] -0.212 | [11] 0.083 | [12] -0.053 | [13] -0.065 | [14] -0.077

ABI1 isoform 6 (UniProt Q8IZP0)
inactive: [7] -0.219 | [1] 0.248 | [9] 0.026 | [3] -0.212 | [4] 0.114 | [15] 0.023

ABCC3 isoform 4 (UniProt O15438)
inactive: [7] 0.033 | [9] 0.01 | [18] 0.061 | [12] 0.035 | [16] 0.03 | [19] 0.028 | [14] -0.054 | [15] -0.015

ABTB2 (UniProt Q8N961)
inactive: [8] 0.224 | [18] -0.058 | [10] -0.708 | [11] -0.126 | [13] -0.463 | [19] -0.137

ACAD10 isoform 5 (UniProt Q6JQN1)
inactive: [7] 0.049 | [1] -0.06 | [9] -0.05 | [18] -0.023 | [10] 0.062 | [11] 0.107 | [12] -0.009 | [16] -0.039 | [13] -0.019 | [19] -0.036 | [2] 0.048 | [14] -0.048 | [3] 0.042 | [4] 0.005 | [5] -0.068 | [15] 0.064 | [6] -0.083

ABCA3 (UniProt Q99758)
inactive: [17] 0.114 | [7] -0.044 | [8] 0.057 | [1] -0.009 | [9] 0.089 | [18] -0.163 | [10] -0.086 | [11] 0.051 | [12] -0.05 | [16] 0.031 | [13] 0.109 | [19] 0.188 | [2] -0.017 | [20] -0.037 | [14] 0.317 | [3] -0.12 | [4] 0.025 | [15] -0.09

ACAD8 (UniProt Q9UKU7)
inactive: [17] 0.023 | [7] 0.022 | [8] -0.121 | [9] -0.01 | [10] -0.046 | [11] 0.019 | [12] 0.102 | [16] 0.041 | [13] -0.056 | [20] -0.065 | [14] -0.052 | [15] 0.095

ACLY isoform 2 (UniProt P53396)
active: [10] -0.485
inactive: [17] 0.035 | [7] 0 | [8] -0.088 | [1] 0.045 | [9] -0.033 | [18] -0.187 | [11] 0.43 | [16] 0.02 | [13] -0.147 | [19] 0.017 | [20] 0.007 | [3] 0.072 | [4] 0.009 | [5] -0.089 | [15] 0.071 | [6] -0.407
